# Values quoted from earlier work as cited in patent US20110189266A1, “CORTICOSTEROID MICROVESICLES FOR TREATMENT OF CARDIOVASCULAR DISEASES” (MOUNT SINAI SCHOOL OF MEDICINE OF NEW YORK UNIVERSITY, priority 2008, published 2011).
# At least one compound was matched to its structure with a doubt left.
# Test system: macrophage accumulation in the intima and media of an atherosclerotic lesion
# Settings: cholesterol fed rabbits; Poon et al 2001; cited from earlier work
structure (smiles),measurement,value
C[C@@H]1C[C@H]2[C@@H]3CCC4=CC(=O)C=C[C@]4(C)[C@@]3(F)[C@@H](O)C[C@]2(C)[C@@]1(O)C(=O)CO [dexamethasone],effect on macrophage accumulation in the intima and media,inhibitory effect
